# From patent US20250019769A1, “REPURPOSING DRUGS FOR NON-SMALL CELL LUNG CANCER” (WEST VIRGINIA UNIVERSITY BOARD OF GOVERNORS ON BEHALF OF …, priority 2021, published 2025)
# Tested on: human NSCLC epithelial cell lines
# Test: PRISM/GDSC drug response in human NSCLC epithelial cell lines (n=135)
# Type: cell-based
# Details: NSCLC cells (FIG. 18C)
# Excerpt: The PRISM dataset. was obtained from the DepMap portal (https://depmap.org/portal/download/, PRISM repurposing 19Q4, accessed on 1 Apr. 2021). Carboplatin, cisplatin, docetaxel, erlotinib, etoposide, gefitinib, gemcitabine, paclitaxel (Taxol), pemetrexed, and vinorelbine were commonly used chemotherapeutic drugs in NSCLC treatment, the analysis focused on these ten regiments. Drug activity measurements, including IC50, ln(IC50), EC50, and ln(EC50), were used in the analysis. The available CCLE NSCLC cell lines were divided into three groups by the drug activity measurements: sensitive, resistant, and intermediate.
# Drug activity measurements were generated in the GDSC Project. (https://www.cancerrxgene.org/downloads/bulk_download, accessed on 15 Apr. 2021). IC50 and ln(IC50) were the main metrics used in this analysis. The available CCLE NSCLC cell lines were divided into three groups by the drug activity measurements in the GDSC1/2 datasets, i.e., sensitive, resistant, and intermediate.
row,SMILES,outliers (IC50 or EC50 higher than 10 μM)
1,CC(C)c1ccccc1Cc1cc(C(=O)Nc2ccc(S(=O)(=O)c3ccccc3C(C)(C)C)cc2)c(O)c(O)c1O [TW-37],without any outliers
2,CO[C@@H](C(=O)N1Cc2n[nH]c(NC(=O)c3ccc(N4CCN(C)CC4)cc3)c2C1)c1ccccc1 [danusertib],without any outliers
